Assay results taken from article PMC8422350.
These are yes or no findings as the source states them, for the method shown. In cells and extracts the contact can be indirect. Here binding means that the protein was enriched with, or labelled near, the bait; the list need not be complete.

Sequences of proteins named here, by UniProt entry; tags and fusion partners are left off.
UniProt Q99JF8: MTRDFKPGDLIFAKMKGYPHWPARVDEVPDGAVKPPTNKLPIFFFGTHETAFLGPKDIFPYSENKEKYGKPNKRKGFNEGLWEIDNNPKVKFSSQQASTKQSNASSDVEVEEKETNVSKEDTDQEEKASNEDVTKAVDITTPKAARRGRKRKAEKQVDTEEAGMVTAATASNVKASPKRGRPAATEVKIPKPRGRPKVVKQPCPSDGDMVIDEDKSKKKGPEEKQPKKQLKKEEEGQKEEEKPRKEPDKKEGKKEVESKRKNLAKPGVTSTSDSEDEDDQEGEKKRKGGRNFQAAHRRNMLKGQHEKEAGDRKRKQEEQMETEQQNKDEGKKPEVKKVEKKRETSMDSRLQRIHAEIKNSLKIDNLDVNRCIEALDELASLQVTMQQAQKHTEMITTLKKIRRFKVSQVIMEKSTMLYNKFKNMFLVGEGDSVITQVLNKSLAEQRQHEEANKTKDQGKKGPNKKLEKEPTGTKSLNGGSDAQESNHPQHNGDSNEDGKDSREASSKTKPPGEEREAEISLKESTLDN

Tests used:
[1] = target: PC4 and SF2 interacting protein (PSIP1/LEDGF), longer isoform p75, endogenous (mouse (endogenous in MEFs and mESCs)) (UniProt Q99JF8); assay: affinity purification with mass spectrometry; SILAC-IP-MS in mESCs: nuclear extracts in RIPA buffer with Benzonase; rabbit IgG (R0K0), anti-MOF (R6K4) and anti-PSIP/p75 (R10K8) on Protein A Dynabeads, 4°C 30 min, beads combined after the first wash; ratio over IgG
[2] = target: PC4 and SF2 interacting protein (PSIP1/LEDGF), longer isoform p75, endogenous (mouse (endogenous in MEFs and mESCs)) (UniProt Q99JF8); assay: affinity purification with mass spectrometry; SILAC-IP-MS in MEFs: nuclear extracts in RIPA buffer with Benzonase; rabbit IgG (R0K0), anti-MOF (R6K4) and anti-PSIP/p75 (R10K8) on Protein A Dynabeads, 4°C 30 min, beads combined after the first wash; ratio over IgG

binding [1]: binds
binding [2]: binds
B1: Cell division cycle-associated 7-like (protein, UniProt Q922M5 1-438)
chain: MELATRSQIPKEVADIFSAPSDDEEFVGFQDDVPMQNLSESCGSLDSRELEKQQNVCFRSKYFTEELRRIFKEDTDSEMEDFEGFTESELNMSSNPELMESELSDSDKAYPVMNDAEEDDEEEAAPRRGRSTRRSSFGLRVAFQFPTKKLARTPDKDSSHLLDSKTDLRRKKSSRQPKGKEDSASDAEDESRAESQENSDALLKRAMNIKENKAMLAQLLAELNSVPDFFPVRTPPSASRRRTPRRAFSEGQITRRMNPTRSARPPEKFALENFTFSATKLTEELYSFRRRKTISGGKCQTYRRHRISSFRSVKDITEEDLENIAITVRDKVYDKVLGNTCHQCRQKTIDTKTVCRNQSCGGVRGQFCGPCLRNRYGEDVRTALLDPKWTCPPCRGICNCSYCRRRDGRCATGILIHLAKFYGYDNVKEYLESLQKQL
